Measurements reported in patent US8263589B2, “Inhibitors of protein aggregation” (Wista Laboratories Ltd., priority 2006, dated 2012).
At least one compound was matched to its structure with a doubt left. Some compounds share one wording; it may come from a single statement.

What was measured:
[1] = target: T1, fsyn (full-length α-synuclein) (Homo sapiens, UniProt P37840); experiment: Inhibition of assembly of fsyn into aggregates (primulin / thioflavine T fluorescence); assay type: biochemical; conditions: primulin assay; for Fluorescence with drug concentration: fsyn aggregation; for inhibition of fsyn assembly at 50 μM: compound 50 μM
T1 construct: Full-length α-synuclein (syn) was expressed without a tag, and purified by ion exchange chromatography; made in house; host or cells: E. coli

[2] = target: α-synuclein (SSFsyn) in NIE-115 cells (Homo sapiens, UniProt P37840); experiment: Cell based assay for α-synuclein aggregation (SSFsyn in NIE-115 cells differentiated with dbcAMP, immunoblot mAb 42); design: species or system mouse; conditions: NIE-115 SSFsyn cells with dbcAMP
Method: The cell based assay employed a mouse neuroblastoma cell line NIE-115 that had been engineered to express full-length α-synuclein incorporating an N-terminal signal sequence (SSfsyn) to target incorporation of the protein into the membrane (see WO02/059150). When the cells were differentiated with dibutyryl cyclicAMP (dbcAMP) (1 mM) expression of the α-synuclein protein was increased.
α-synuclein protein was detected by immunoblot using various anti-α-synuclein antibodies. These included: mAb 42 (BD Biosciences Cat No. 610787) that recognises an epitope within tsyn (residues 31-109 of α-synuclein). In addition to α-synuclein, mAb 42 also reacts non-specifically with a protein of higher molecular mass (the protein is not recognised by other anti-α-synuclein antibodies). This protein was used as an estimate of cell numbers as the level of this protein in cells correlates with cell density. Drugs were tested with these cells and an inhibitory activity (EC50) was calculated by determining the drug concentration in which the ratio of α-synuclein to the non-specific band fell to 50% of the value for cells treated with dbcAMP alone.
The timing of the addition of the dbcAMP and drug was varied and the length of time that the cells are left in the presence of drug+dbcAMP before collecting cells was also be varied.

| SMILES | Fluorescence with drug concentration ([1]; drug 0.5 μM (no drug: 311.3)) | Fluorescence with drug concentration ([1]; drug 5.0 μM (no drug: 311.3)) | Fluorescence with drug concentration ([1]; drug 50 μM (no drug: 311.3)) | inhibition of α-synuclein aggregation compared between compounds ([1]; fsyn) | inhibition of fsyn assembly at 50 μM [1] | inhibitory activity in the cell based assay [2] |
| --- | --- | --- | --- | --- | --- | --- |
| CCN(CC)c1ccc2nc3ccc(N(CC)CC)cc3[s+]c2c1 [ETC, Ethyl-thioninium chloride] | 190.6 | 44.6 | 1.5 | comparable and greater than that observed with DEMTC and DEETC | completely inhibited assembly | show inhibitory activity |
| CCc1cc(N(C)C)cc2[s+]c3cc(N(C)C)cc(CC)c3nc12 [DEMTC, 1,9-Diethyl-methyl-thioninium chloride] | 295.7 | 23.4 | 0.0 |  | completely inhibited assembly | show inhibitory activity |
| CCN(CC)c1cc(C)c2nc3c(C)cc(N(CC)CC)cc3[s+]c2c1 [DMETC] |  |  |  |  |  | show inhibitory activity |
| CCc1cc(N(CC)CC)cc2[s+]c3cc(N(CC)CC)cc(CC)c3nc12 [DEETC, 1,9-Diethyl-ethyl-thioninium chloride] | 369.2 | 18.2 | 0.0 |  | completely inhibited assembly | inhibited in the nM range |
